Data: paper PMC8880919
These are yes or no findings as the source states them, for the method shown. In cells and extracts the contact can be indirect. Some binding calls cover weakened binding; strength is not graded here.

Sequences of proteins named here, by UniProt entry; tags and fusion partners are left off.
UniProt Q9UUK2: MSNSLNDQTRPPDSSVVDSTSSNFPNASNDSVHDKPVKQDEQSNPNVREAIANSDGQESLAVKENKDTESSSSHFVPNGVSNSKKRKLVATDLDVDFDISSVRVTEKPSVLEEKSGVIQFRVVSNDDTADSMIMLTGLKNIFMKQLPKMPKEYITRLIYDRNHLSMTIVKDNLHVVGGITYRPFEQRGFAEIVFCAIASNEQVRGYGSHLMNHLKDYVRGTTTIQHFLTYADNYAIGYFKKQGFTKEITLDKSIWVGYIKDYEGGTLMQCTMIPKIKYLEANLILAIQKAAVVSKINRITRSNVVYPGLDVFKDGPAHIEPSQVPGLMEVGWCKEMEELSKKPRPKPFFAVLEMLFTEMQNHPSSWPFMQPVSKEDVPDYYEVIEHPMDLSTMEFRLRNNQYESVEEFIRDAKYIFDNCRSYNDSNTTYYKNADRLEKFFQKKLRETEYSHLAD
UniProt O94529: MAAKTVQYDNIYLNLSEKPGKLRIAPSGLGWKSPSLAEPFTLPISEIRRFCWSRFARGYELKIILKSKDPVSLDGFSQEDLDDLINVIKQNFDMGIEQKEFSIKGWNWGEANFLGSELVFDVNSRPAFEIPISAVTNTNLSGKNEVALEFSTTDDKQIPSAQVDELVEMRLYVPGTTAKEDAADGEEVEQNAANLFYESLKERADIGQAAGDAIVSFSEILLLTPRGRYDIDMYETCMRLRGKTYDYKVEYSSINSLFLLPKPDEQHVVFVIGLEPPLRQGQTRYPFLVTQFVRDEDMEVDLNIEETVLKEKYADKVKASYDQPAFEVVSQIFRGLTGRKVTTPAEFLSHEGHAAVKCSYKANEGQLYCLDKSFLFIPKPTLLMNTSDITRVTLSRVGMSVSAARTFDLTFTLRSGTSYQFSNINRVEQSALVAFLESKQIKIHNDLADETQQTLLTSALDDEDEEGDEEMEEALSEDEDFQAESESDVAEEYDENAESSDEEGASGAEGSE

Key:
Test in all cases: co-IP; protein extracts of wild type S. pombe cells expressing chromosomally tagged proteins; 500 ug protein, IP with anti-MYC or anti-FLAG overnight at 4 C, protein A/G sepharose; lysis buffer PBS pH 7.0, 200 mM NaCl, 0.5 mM EGTA, 0.5 mM EDTA, 0.1% Triton X100; five washes at 220 mM NaCl; blots with anti-HA, anti-FLAG or anti-MYC
Cdc73 (S. pombe) = target: T1, Cdc73 (S. pombe) (UniProt Q9UUE7)
T1 sequence: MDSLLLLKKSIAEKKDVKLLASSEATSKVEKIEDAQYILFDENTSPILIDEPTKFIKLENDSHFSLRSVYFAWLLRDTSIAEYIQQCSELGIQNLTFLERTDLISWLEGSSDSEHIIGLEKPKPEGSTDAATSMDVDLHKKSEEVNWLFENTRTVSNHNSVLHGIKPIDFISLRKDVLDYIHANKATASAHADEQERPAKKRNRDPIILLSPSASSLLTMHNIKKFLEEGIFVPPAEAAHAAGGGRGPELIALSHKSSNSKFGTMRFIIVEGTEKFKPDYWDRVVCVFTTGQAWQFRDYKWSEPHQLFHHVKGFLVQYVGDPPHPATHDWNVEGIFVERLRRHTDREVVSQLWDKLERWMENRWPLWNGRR

Gcn5 (S. pombe) = Gcn5 (S. pombe) (UniProt Q9UUK2)
Pob3 (S. pombe) = Pob3 (S. pombe) (UniProt O94529)
Tpr1 (S. pombe) = target: T2, Tpr1 (S. pombe) (UniProt O42668)
T2 sequence: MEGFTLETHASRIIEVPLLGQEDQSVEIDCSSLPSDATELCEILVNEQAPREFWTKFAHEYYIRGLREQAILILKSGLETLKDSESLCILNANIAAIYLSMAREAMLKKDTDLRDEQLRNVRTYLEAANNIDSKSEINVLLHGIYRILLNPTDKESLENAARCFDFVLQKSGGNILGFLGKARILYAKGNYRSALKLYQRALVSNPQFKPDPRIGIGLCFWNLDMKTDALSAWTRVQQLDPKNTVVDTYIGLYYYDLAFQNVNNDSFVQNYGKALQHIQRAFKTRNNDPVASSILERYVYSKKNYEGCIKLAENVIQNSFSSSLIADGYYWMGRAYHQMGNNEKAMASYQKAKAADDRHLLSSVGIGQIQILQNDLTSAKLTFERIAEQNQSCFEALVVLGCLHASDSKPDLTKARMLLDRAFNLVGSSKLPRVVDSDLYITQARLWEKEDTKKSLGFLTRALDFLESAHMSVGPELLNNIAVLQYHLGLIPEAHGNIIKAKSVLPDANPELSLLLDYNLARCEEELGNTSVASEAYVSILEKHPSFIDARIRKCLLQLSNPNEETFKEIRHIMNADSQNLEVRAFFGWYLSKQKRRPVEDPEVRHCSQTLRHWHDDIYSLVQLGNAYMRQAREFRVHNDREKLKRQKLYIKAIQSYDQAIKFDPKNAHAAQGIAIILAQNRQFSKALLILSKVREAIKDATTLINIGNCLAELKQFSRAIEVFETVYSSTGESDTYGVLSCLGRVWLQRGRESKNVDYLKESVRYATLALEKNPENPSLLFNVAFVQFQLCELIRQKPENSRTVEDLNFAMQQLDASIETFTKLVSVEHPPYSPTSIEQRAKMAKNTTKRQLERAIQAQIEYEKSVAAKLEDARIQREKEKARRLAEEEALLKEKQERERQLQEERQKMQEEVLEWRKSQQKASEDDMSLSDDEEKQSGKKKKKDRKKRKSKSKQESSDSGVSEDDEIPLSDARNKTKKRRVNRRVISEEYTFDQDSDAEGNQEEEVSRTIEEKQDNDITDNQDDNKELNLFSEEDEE

binding (Cdc73 (S. pombe)): no binding
binding (Gcn5 (S. pombe)): binds
binding (Pob3 (S. pombe)): binds
binding (Tpr1 (S. pombe)): no binding
B1: Gad8 (protein, UniProt Q9P7J8 1-569)
chain: MSWKLTKKLKETHLASAIGLNSGGSSFTRGLKNSTLSSTSSRKSSDEKSRKSSEDKRSPQSTVVQPGLLQVTIIEARNLKLPSGHVPANYGVSIDNSLLAPPLSNGSGHARSRSHAWWLPYIVVEFDKNEILVDALNTASLENPCWDYQATFDVSRYSKLSLNIYLRSSSSRSRNGMGNDAFLGGIKLSPSFIVNKLTDEWVPLHGGSGELRVQMLYKPNQSTPLTIDAFELLKVVGKGSFGKVMQVRKRDTSRIYALKTMKKAHIVSRSEVDHTLAERTVLAQVNNPFIVPLKFSFQSPGKLYLVLAFVNGGELFHHLQREGCFDTYRAKFYIAELLVALECLHEFNVIYRDLKPENILLDYTGHIALCDFGLCKLNMAKTDRTNTFCGTPEYLAPELLLGHGYTKVVDWWTLGVLLYEMITGLPPFYDENINEMYRKILQDPLRFPDNIDEKAKDLLSGLLTRAPEKRLGSGGAQEIKNHPFFDDIDWKKLCAKKIQPPFKPSVESAIDTSNFDSEFTSEIPMDSVVADSHLSETVQQRFANWSYQRPTTIDTSDDINTIAPGSVIR
